Laboratory results published in PMC509306.
No constants are given. Whether binding was seen depends on the method and setting. Binding can be weak; no strength is given.

Sequences of proteins named here, by UniProt entry; tags and fusion partners are left off. A change or cut given only in a name is not applied to a line headed by its entry.
UniProt P41546: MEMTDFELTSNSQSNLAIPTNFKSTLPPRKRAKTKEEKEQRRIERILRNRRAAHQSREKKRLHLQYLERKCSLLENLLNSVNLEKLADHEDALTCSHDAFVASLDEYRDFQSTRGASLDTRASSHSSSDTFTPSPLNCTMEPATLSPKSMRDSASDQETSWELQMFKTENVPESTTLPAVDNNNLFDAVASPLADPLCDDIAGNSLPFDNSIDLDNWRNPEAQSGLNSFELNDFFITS
UniProt P03069: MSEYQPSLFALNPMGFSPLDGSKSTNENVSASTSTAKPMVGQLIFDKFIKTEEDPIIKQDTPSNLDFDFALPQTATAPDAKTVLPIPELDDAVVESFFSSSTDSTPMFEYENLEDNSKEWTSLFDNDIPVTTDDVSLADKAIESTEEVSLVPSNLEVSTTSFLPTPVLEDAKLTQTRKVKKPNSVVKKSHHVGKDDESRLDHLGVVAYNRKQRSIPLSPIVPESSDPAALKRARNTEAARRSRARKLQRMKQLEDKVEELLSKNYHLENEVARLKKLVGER

Target: HA-tagged Hac1p (S. cerevisiae) (UniProt P41546)
Assay: native gel or EMSA; supershift: crude extracts of Tm-treated yeast expressing Gcn4p-myc and HA-Hac1p, incubated with 32P-labelled UPRE-1 or UPRE-2 oligos and with anti-myc, anti-HA or both; nondenaturing 5% polyacrylamide gel with 4% glycerol; the two proteins are seen together on the DNA

- binding: binds
Substance: myc-tagged Gcn4p (from UniProt P03069 1-281)
